{"source": "PubChem BioAssay AID540276", "about": "(National Center for Advancing Translational Sciences (NCATS), 2011)", "note": "In all, about 300,000 compounds went through this assay and about 5,400 (1.8%) were called active. Inconclusive results, whose numbers are uncertain, are shown with a selection of clear calls. Calls follow the shape of the full dose curve; tested in HEK293 cells. Potencies beside an inconclusive call are fits to weak or partial responses and may not hold up. % is scaled to controls: 0 for no effect and ±100 for the full control effect; potency is read from the fitted curve at half-maximal effect.", "data": [{"assay": "qHTS for inhibitors of binding or entry into cells for Marburg Virus", "details": "Marburg virus pseudotyped entry inhibition, cell reporter; activity change, negative = inhibition: at 37.8 µM (top of the series) unless noted", "values": [{"compound": "O=C(Nc1ccc2ccccc2c1)c1cccnc1", "Potency": "inconclusive: 17.8 µM [inhibitor, single point]"}, {"compound": "COc1ccc(OC)c(NC(=S)N2CCN(c3ccccn3)CC2)c1", "activity change, negative = inhibition": "inactive: -2.07% [at 46.1 µM]"}, {"compound": "COc1cc(/C=C/C(=O)Nc2ccc(C)cc2)cc(OC)c1OC", "activity change, negative = inhibition": "inactive: 2.62%"}, {"compound": "Cc1cccc(OCC(=O)Nc2nc3ccc([N+](=O)[O-])cc3s2)c1C", "Potency": "inconclusive: 1.26 µM [activator, single point]"}, {"compound": "COc1ccc(Nc2nc(-c3cccc([N+](=O)[O-])c3)nc3ccccc23)c(OC)c1", "Potency": "inconclusive: 7.08 µM [activator, partial curve, poor fit]"}, {"compound": "Cn1c(SCc2ccccc2)nnc1-c1ccc(O)cc1", "activity change, negative = inhibition": "inactive: 6.22%"}, {"compound": "COc1ccc(C(=O)N2CC(=O)Nc3ccc(C)cc3C2c2ccccc2)c(OC)c1", "note": "(configuration not stated)", "activity change, negative = inhibition": "inactive: 0.0878% [at 46.1 µM]"}, {"compound": "COc1ccc(-c2noc(-c3ccc(C)cc3)n2)cc1", "Potency": "inconclusive: 15.8 µM [inhibitor, partial curve, poor fit]"}, {"compound": "c1ccc(CN2CCN(CCOCCOc3ccc4c(c3)CCC4)CC2)cc1", "Potency": "inconclusive: 35.5 µM [inhibitor, single point]"}, {"compound": "O=C(Cn1cnc2ccccc21)N/N=C/c1ccc([N+](=O)[O-])cc1", "activity change, negative = inhibition": "inactive: 22.3% [at 46.1 µM]"}, {"compound": "N#CCC(N)=C(C#N)C#N", "Potency": "inconclusive: 29.1 µM [activator, single point]"}, {"compound": "CC(C)(C)OC(=O)N1Cc2ccccc2C[C@H]1C(=O)NC1CCCC1", "Potency": "inconclusive: 1.26 µM [inhibitor, single point]"}, {"compound": "Cn1nc(C(F)(F)F)c2cc(NC(=O)OCc3ccc(C(C)(C)C)cc3)sc21", "Potency": "inconclusive: 0.0891 µM [activator, full curve, poor fit]"}, {"compound": "COC(=O)CSc1nnc(-c2ccccc2OC)o1", "activity change, negative = inhibition": "inactive: -0.228%"}, {"compound": "COc1ccc(/C=C\\c2onc(C)c2S(=O)(=O)N2CCC(C(=O)Nc3ccc(Cl)cc3)CC2)cc1", "Potency": "inconclusive: 3.55 µM [inhibitor, single point]"}, {"compound": "COc1ccc(C(=O)C(Cc2cc(C(C)=O)ccc2OC)N2CCCC2)cc1", "note": "(configuration not stated)", "Potency": "inconclusive: 1 µM [inhibitor, full curve, poor fit]"}, {"compound": "O=C(Nc1ccc2oc(-c3ccncc3)nc2c1)c1ccc(Br)o1", "activity change, negative = inhibition": "inactive: 18.2% [at 46.1 µM]"}, {"compound": "Oc1c(Cl)cc(Cl)cc1/C=C/c1ccc2cccc(O)c2n1", "Potency": "inconclusive: 10 µM [inhibitor, partial curve, poor fit]"}, {"compound": "COc1ccc(OC)c(C(c2nnnn2CCC(C)C)N2CCN(C(=O)c3ccco3)CC2)c1", "note": "(configuration not stated)", "activity change, negative = inhibition": "inactive: -24.8%"}, {"compound": "Cc1ccc(-c2csc3ncnc(Oc4ccc5c(C)cc(=O)oc5c4)c23)cc1", "Potency": "inconclusive: 22.4 µM [inhibitor, single point]"}, {"compound": "Cc1cc2nc(N)sc2cc1C", "activity change, negative = inhibition": "inactive: -25.6%"}, {"compound": "O=C1C2CC=CCC2C(=O)N1c1ccc(NCCc2ccc(O)cc2)c([N+](=O)[O-])c1", "note": "(configuration not stated)", "Potency": "inconclusive: 0.562 µM [activator, full curve, poor fit]"}, {"compound": "O=C(CN1C(=O)c2ccccc2C1=O)NCCc1c[nH]c2ccc(Cl)cc12", "activity change, negative = inhibition": "inactive: 12.5%"}, {"compound": "CC(C)(C(=O)O)c1ccc([C@@H](O)CCCN2CCC(C(O)(c3ccccc3)c3ccccc3)CC2)cc1", "activity change, negative = inhibition": "inactive: 9.83%"}, {"compound": "CCOc1ccccc1N(CC(=O)N1CCCC1)S(C)(=O)=O", "Potency": "inconclusive: 5.01 µM [inhibitor, single point]"}, {"compound": "Cc1ccc2c(CN3CCCc4ccccc43)cc(=O)oc2c1C", "Potency": "inconclusive: 5.62 µM [inhibitor, partial curve, poor fit]"}, {"compound": "CC/C(=N\\NC(=O)c1csc(C)c1C)c1cccs1", "Potency": "inconclusive: 12.6 µM [inhibitor, single point]"}, {"compound": "Cc1cc(C)c(NC(=O)c2cc(=O)c3ccccc3o2)c(C)c1", "activity change, negative = inhibition": "inactive: 7.13%"}, {"compound": "C=CCOc1c(CNc2cccc(C(=O)O)c2)cccc1OC", "Potency": "inconclusive: 1.12 µM [activator, full curve, poor fit]"}, {"compound": "CC1CCCN(S(=O)(=O)c2ccc(NC(=O)C3CC(=O)N(c4ccccc4)C3)cc2)C1", "note": "(configuration not stated)", "Potency": "inconclusive: 0.562 µM [inhibitor, full curve, poor fit]"}, {"compound": "CCC(=O)N1CCc2cc(Br)cc(S(=O)(=O)CCC(=O)N3CCN(c4ccccc4OC)CC3)c21", "activity change, negative = inhibition": "inactive: -1.49% [at 46.1 µM]"}, {"compound": "COc1cccc(/C=N/Nc2nn3cnnc3c3ccccc23)c1O", "Potency": "inconclusive: 2.51 µM [inhibitor, full curve, poor fit]"}, {"compound": "Cc1cccc2[nH]c(-c3ccc(NC(=O)c4ccco4)cc3)nc12", "Potency": "inconclusive: 35.5 µM [inhibitor, single point]"}, {"compound": "COc1ccccc1C(=O)Nc1c2c(nn1-c1cccc(C)c1C)CS(=O)(=O)C2", "Potency": "inconclusive: 32.6 µM [inhibitor, single point]"}, {"compound": "Cc1ccc(O)c(CNc2cnc3ccccc3c2)c1", "Potency": "inconclusive: 12.6 µM [activator, partial curve, poor fit]"}, {"compound": "O=[N+]([O-])c1ccc(NS(=O)(=O)N2CCOCC2)cc1", "Potency": "inconclusive: 0.316 µM [inhibitor, partial curve, poor fit]"}, {"compound": "COc1cc(CNCCc2ccc3c(c2)OCO3)ccc1O", "Potency": "inconclusive: 0.794 µM [inhibitor, single point]"}, {"compound": "NCCNc1cc(N2CCCC2)ccc1[N+](=O)[O-]", "Potency": "inconclusive: 22.4 µM [inhibitor, partial curve, poor fit]"}, {"compound": "COc1cc(C=O)ccc1OCCOc1ccccc1[N+](=O)[O-]", "Potency": "inconclusive: 12.6 µM [activator, partial curve, poor fit]"}, {"compound": "C=CCNC(=S)NNC(=O)c1ccc(Br)cc1", "Potency": "inconclusive: 1.26 µM [activator, single point]"}, {"compound": "C=C(C)Cn1c(SCC(=O)Nc2cc(C)ccc2C)nc2sc3c(c2c1=O)CCCC3", "activity change, negative = inhibition": "inactive: 6.3% [at 46.1 µM]"}, {"compound": "Cc1ccc(NC(=O)c2ccc3snnc3c2)cc1Cl", "Potency": "inconclusive: 11.2 µM [activator, partial curve, poor fit]"}, {"compound": "CCc1ccc(S(=O)(=O)c2nnn(-c3ccc(F)cc3)c2N)cc1", "Potency": "inconclusive: 35.5 µM [inhibitor, single point]"}, {"compound": "O=C(O)c1ccc(-n2ncc3c2/C(=C\\c2cccc([N+](=O)[O-])c2)CC3)cc1", "Potency": "inconclusive: 0.141 µM [activator, full curve, poor fit]"}, {"compound": "Cc1nnc(NC(=O)CCS(=O)(=O)Cc2ccccc2)s1", "Potency": "inconclusive: 6.31 µM [inhibitor, single point]"}, {"compound": "CCc1noc(C)c1C(=O)N1CCN(S(=O)(=O)c2ccc(Br)cc2Cl)CC1", "Potency": "inconclusive: 35.5 µM [inhibitor, single point]"}, {"compound": "CC/C(=N\\Nc1ccccc1[N+](=O)[O-])c1ccc(O)cc1", "Potency": "inconclusive: 2.82 µM [activator, partial curve, poor fit]"}, {"compound": "CCCC(=O)NC(=S)Nc1nc(-c2ccc(OC)cc2)cs1", "Potency": "inconclusive: 0.891 µM [inhibitor, full curve]"}, {"compound": "O=c1c2cc(-c3ccccc3)sc2nc2n1N=C(c1cccs1)CS2", "Potency": "inconclusive: 5.01 µM [activator, single point]"}, {"compound": "Cc1cccc(OCC(=O)NCC2(N3CCN(C)CC3)CCCCC2)c1C", "Potency": "inconclusive: 22.4 µM [inhibitor, single point]"}, {"compound": "Cc1ccc(/C=C/C(=O)NCc2ccncc2)cc1", "Potency": "inconclusive: 6.31 µM [activator, full curve, poor fit]"}, {"compound": "Cc1cc(-c2n[nH]c(=S)n2-c2ccccc2C)cs1", "Potency": "inconclusive: 0.447 µM [activator, partial curve, poor fit]"}, {"compound": "O=C(c1cccc(OC2CCN(Cc3cccc(OCCO)c3)CC2)c1)N1CCCC1", "Potency": "inconclusive: 15.8 µM [inhibitor, single point]"}, {"compound": "O=C(Cc1ccc(S(=O)(=O)N2CCOCC2)s1)Nc1cc(C(F)(F)F)ccc1N1CCCC1", "Potency": "inconclusive: 10 µM [inhibitor, partial curve, poor fit]"}, {"compound": "CCCCN(C)Cc1cc(=O)oc2cc3c(cc12)CCCC3", "Potency": "inconclusive: 2.51 µM [inhibitor, partial curve]"}, {"compound": "CCOc1ccccc1C(=O)N(CN1CCCC1=O)c1ccc(C)c(Cl)c1", "Potency": "inconclusive: 29.1 µM [inhibitor, single point]"}, {"compound": "CCOc1ccc(/C=N/NC(=O)c2ccoc2C)cc1OC", "Potency": "inconclusive: 2.51 µM [activator, partial curve, poor fit]"}, {"compound": "O=C(Nc1cccc([N+](=O)[O-])c1)NN1CCCCCC1", "Potency": "inconclusive: 35.5 µM [inhibitor, single point]"}, {"compound": "CC(C(=O)NC1CCCC1)N1CCN(Cc2ccccc2)CC1", "note": "(configuration not stated)", "activity change, negative = inhibition": "inactive: -13.9% [at 46.1 µM]"}, {"compound": "Cc1ccc(NC(=O)c2noc(C(C)C)c2[N+](=O)[O-])cc1", "activity change, negative = inhibition": "inactive: 7.1% [at 46.1 µM]"}, {"compound": "O=C(CSc1ccccn1)Nc1ccc2c(c1)OCO2", "Potency": "inconclusive: 3.16 µM [activator, single point]"}, {"compound": "Nc1ccc(N2CCOCC2)cc1C(F)(F)F", "Potency": "inconclusive: 35.5 µM [activator, single point]"}, {"compound": "COc1ccc(C(O)(CC(C)C)C(CN2CCOCC2)c2ccccc2)cc1", "note": "(configuration not stated)", "Potency": "inconclusive: 10 µM [inhibitor, partial curve, poor fit]"}, {"compound": "O=C(Nc1ccccc1)C1=C(O)CC(c2ccc(Cl)cc2)N2CCN=C12", "note": "(configuration not stated)", "Potency": "inconclusive: 12.6 µM [inhibitor, partial curve, poor fit]"}, {"compound": "O=C(CN(Cc1ccccc1F)C(=O)Cn1nnc(-c2cccs2)n1)NC1CCCCC1", "Potency": "inconclusive: 11.2 µM [inhibitor, partial curve, poor fit]"}, {"compound": "C=CCOC(=O)/C(=C\\C=C\\c1ccccc1)NC(=O)c1ccccc1", "activity change, negative = inhibition": "inactive: -27.8%"}, {"compound": "CC(=O)N1CCN(c2nnc(-c3ccc(C)cc3)c3ccccc23)CC1", "Potency": "inconclusive: 35.5 µM [inhibitor, single point]"}]}]}
